Experimental data from patent US9116112B2, “UV protective skin treatment compositions and screening methods” (JR Chem LLC, priority 2011, dated 2015).
Some entries share one result that the patent states for a list of compounds. For at least one compound, name, drawing or mass did not settle the structure.

Assay: Briggs-Rauscher Oscillation Reaction Method (BROM) antioxidant capacity
Format: biochemical
Settings: text b54, summary of Table 3

COc1ccc([C@@H]2CC(=O)c3c(O)cc(O[C@@H]4O[C@H](CO[C@@H]5O[C@@H](C)[C@H](O)[C@@H](O)[C@H]5O)[C@@H](O)[C@H](O)[C@H]4O)cc3O2)cc1O [Hesperidin]
BROM values: greater than 5 s/μg
